Consider one substance from paper PMC6235892.

Amino acid sequences for entries named in this document (tags omitted). A change or cut given only in a name is not applied to a line headed by its entry.
UniProt P10417: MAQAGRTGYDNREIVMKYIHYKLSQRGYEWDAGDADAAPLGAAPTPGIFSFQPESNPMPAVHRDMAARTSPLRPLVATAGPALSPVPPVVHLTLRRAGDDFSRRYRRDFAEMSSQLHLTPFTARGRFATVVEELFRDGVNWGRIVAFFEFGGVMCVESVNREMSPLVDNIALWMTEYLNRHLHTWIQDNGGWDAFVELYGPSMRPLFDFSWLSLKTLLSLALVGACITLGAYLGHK
UniProt P06537: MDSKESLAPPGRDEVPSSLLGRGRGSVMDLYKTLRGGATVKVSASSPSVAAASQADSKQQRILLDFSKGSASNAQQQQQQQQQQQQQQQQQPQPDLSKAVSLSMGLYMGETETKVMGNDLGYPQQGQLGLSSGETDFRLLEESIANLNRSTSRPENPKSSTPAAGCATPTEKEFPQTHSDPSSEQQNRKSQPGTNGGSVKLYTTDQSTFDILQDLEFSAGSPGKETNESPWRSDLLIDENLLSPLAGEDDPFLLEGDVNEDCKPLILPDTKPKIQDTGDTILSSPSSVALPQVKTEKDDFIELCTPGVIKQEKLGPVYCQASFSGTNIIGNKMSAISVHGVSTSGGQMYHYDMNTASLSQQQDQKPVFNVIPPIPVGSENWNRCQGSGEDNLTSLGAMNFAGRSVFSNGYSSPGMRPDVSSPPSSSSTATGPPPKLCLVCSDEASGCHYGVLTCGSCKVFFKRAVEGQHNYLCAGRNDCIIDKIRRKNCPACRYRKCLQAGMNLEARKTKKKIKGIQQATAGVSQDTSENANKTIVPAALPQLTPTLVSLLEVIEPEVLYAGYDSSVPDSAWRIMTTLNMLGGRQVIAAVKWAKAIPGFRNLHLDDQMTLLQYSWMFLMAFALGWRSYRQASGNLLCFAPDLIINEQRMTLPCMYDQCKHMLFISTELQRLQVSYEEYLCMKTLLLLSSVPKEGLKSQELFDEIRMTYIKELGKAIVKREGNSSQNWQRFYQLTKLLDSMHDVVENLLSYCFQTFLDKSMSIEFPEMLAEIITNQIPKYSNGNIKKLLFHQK
UniProt Q60932: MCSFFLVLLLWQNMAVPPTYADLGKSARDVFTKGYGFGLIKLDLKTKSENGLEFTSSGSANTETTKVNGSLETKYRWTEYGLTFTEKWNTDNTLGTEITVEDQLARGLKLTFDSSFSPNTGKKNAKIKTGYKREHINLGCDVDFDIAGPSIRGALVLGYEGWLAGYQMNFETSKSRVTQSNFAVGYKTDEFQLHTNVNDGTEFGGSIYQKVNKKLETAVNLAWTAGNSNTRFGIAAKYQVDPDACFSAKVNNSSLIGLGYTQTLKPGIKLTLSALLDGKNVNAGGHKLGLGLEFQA

Results are given in words; binding and its absence hold for the method and conditions named. Binding seen in cells or lysates may run through a third protein. Binding can be weak; no strength is given.

The target of experiment [1] is Bcl-2, mouse (mouse (endogenous in hippocampus)) (UniProt P10417). Nature of the experiment: co-IP; lysed hippocampus of male ICR mice exposed to vehicle or corticosterone (10 mg/kg), in one panel rapamycin (8 mg/kg) before; endogenous proteins.
The target in experiment [2] is glucocorticoid receptor (GR), mouse (mouse (endogenous in hippocampus)) (UniProt P06537). Described as above.

For the substance “voltage-dependent anion-selective channel 1 (VDAC1), mouse (from UniProt Q60932)”, the binding entry in experiment [1] and in experiment [2] was “binds” throughout.
